The source of these data is the supplement of paper PMC4862054.

Most values lie at the level of the controls, where differences are scatter.

What all share (test): normalised response (% of control), CellTox Green; higher = less cell death (100 = DMSO, 0 = benzethonium chloride kill control)
Holding throughout (conditions): incubation time: 72 h

The subject of assay [1] is HDQ-P1. As for the experimental part:
(§1)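 DSRT, 72 h incubation, CellTox Green / CellTiter-Glo readout. Signal is normalised to DMSO and benzethonium chloride controls. Value is the normalised response at dose 2.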

Assay [2] concerns MDA-MB-231. As for the experimental part: as §1
In assay [3] the test system is MDA-MB-436. As for the experimental part:
as §1

Assay [4] concerns CAL-120. As for the experimental part: as §1
The subject of assay [5] is MFM-223. As for the experimental part: as §1
Assay [6] has as its system CAL-85-1. As for the experimental part:
as §1

Assay [7] concerns CAL-148. As for the experimental part: as §1
Assay [8] has as its system BT-474. As for the experimental part: as §1
Assay [9] concerns HCC1143. As for the experimental part:
as §1

The subject of assay [10] is MDA-MB-468. As for the experimental part:
as §1

Assay [11] concerns DU-4475. As for the experimental part: as §1
The test system of assay [12] is CAL-51. As for the experimental part: as §1
Assay [13] deals with Hs578T. As for the experimental part:
as §1

Assay [14] concerns BT-549. As for the experimental part: as §1
The test system of assay [15] is MCF-10A. As for the experimental part: as §1
Assay [16] concerns HCC1599. As for the experimental part:
as §1

For assay [17], the system named is MDA-MB-453. As for the experimental part: as §1
The test system of assay [18] is HCC1937. As for the experimental part: as §1

Turning to `Cc1c(Cn2c(C)nc3c(C(=O)O)cc(N4CCOCC4)cc32)cccc1C(F)(F)F` (10 nM), the normalised response in [1] was 120%; in assay [2], 125%; in [3] it was 75.5%; in assay [4] it was 103%; in assay [5], 104%; in assay [6], 101%. For the same compound, the normalised response in assay [7] is 103%; in assay [8], 101%; in assay [9], 120%; in assay [10], 108%; in assay [11], 112%; in assay [12] it was 103%. Further, the normalised response in assay [13] amounted to 130%; in [14], 109%; in assay [15], 99.1%; in [16] it was 123%; in [17], 107%; in assay [18], 130%.
As for `N#Cc1ccc(COC[C@H]2O[C@@H](n3c(NCc4ccc(Cl)c(Cl)c4)nc4c(N)ncnc43)[C@H](O)[C@@H]2O)cc1` (10 nM), the normalised response turned out to be 121% in [1]; 94.5% in assay [2]; 107% in assay [3]; 108% in [4]; 98.4% in [5]; 108% in assay [6]. Besides, the normalised response came to 108% in assay [7]; 102% in assay [8]; 67.3% in assay [9]; 122% in assay [10]; 117% in [11]; 94.4% in assay [12]. Further, the normalised response in assay [13] worked out at 132%; in [14] it was 113%; in [15] it was 120%; in [16], 121%; in [17], 68.8%; in [18], 89%.
`CCCCC/C=C/C=C1/C(=O)C=C[C@@H]1C/C=C\CCCC(=O)O` [15D-PGJ2] (0.8 nM): the normalised response turned out to be 115% in [1]; 124% in [2]; 86.1% in [3]; 108% in assay [4]; 106% in [5]; 112% in [6]. Also, the normalised response in assay [7] came to 111%; in assay [8] it was 105%; in assay [9], 102%; in assay [10], 89.3%; in assay [11] it was 99%; in [12], 89%. The normalised response in [13] turned out to be 131%; in assay [14] it was 108%; in assay [15], 111%; in assay [16], 96.1%; in assay [17] it was 103%.
`COc1cc2c(Oc3ccc4[nH]c(C)cc4c3F)ncnc2cc1OCCCN1CCCC1` [Cediranib] (1 nM): the normalised response in assay [1] was 125%; in assay [2], 97.8%; in [3], 79.8%; in assay [4], 98.2%; in assay [5] it was 97.5%; in assay [6], 96.2%. The normalised response in [7] came to 103%; in assay [8] it was 101%; in assay [9] it was 111%; in [10] it was 58.8%; in [11], 109%; in [12], 115%. Moreover, the normalised response came out at 116% in assay [13]; 68.4% in [14]; 99.6% in assay [15]; 118% in [16]; 105% in assay [17]; 113% in assay [18].
`CCCc1cc(C)[nH]c(=O)c1CNC(=O)c1cc(-c2ccnc(N3CCN(C)CC3)c2)cc2c1cnn2C(C)C` [GSK343] (10 nM): the normalised response in [1] came to 121%; in [2], 92.3%; in [3], 60.1%; in assay [4], 97.5%; in assay [5], 100%; in [6] it was 99.8%. Besides, the normalised response in assay [7] came to 76.3%; in assay [8], 100%; in assay [9], 106%; in assay [10], 91.8%; in assay [11] it was 91.8%; in assay [12], 74.8%. In addition, the normalised response turned out to be 122% in assay [13]; 103% in [14]; 95.4% in [16]; 90.9% in assay [17]; 98.5% in assay [18].
For the compound `Cc1ccc([N+](=O)[O-])cc1S(=O)(=O)N(C)/N=C/c1cnc2ccc(Br)cn12` [PIK-75] (10 nM), the normalised response in assay [1] was 110%; in [3], 91%; in assay [4] it was 100%; in [5] it was 92.8%; in assay [6] it was 96.8%; in assay [7] it was 99.1%. For the same compound, the normalised response in [8] was found to be 100%; in assay [9], 105%; in assay [10] it was 81.2%; in assay [11], 98.6%; in assay [12], 46.1%; in assay [13], 115%. The normalised response is 89.8% in assay [14]; 57.8% in [15]; 91.7% in [16]; 92.5% in assay [17]; 82.4% in assay [18].
For the compound `CS(=O)(=O)c1ccc(C2=C(c3ccccc3)C(=O)OC2)cc1` [Rofecoxib] (10 nM), the normalised response came to 105% in assay [1]; 105% in assay [2]; 107% in [3]; 89.2% in assay [4]; 91% in [5]; 100% in assay [6]. Also, the normalised response came out at 111% in assay [7]; 104% in [8]; 97.4% in [9]; 123% in assay [10]; 100% in [11]; 101% in assay [12]. Further, the normalised response was 124% in assay [13]; 105% in [14]; 107% in assay [15]; 104% in assay [16]; 121% in assay [18].
Take `CCC1=C[C@@H]2CN(C1)Cc1c([nH]c3ccccc13)[C@@](C(=O)OC)(c1cc3c(cc1OC)N(C)[C@H]1[C@@](O)(C(=O)OC)[C@H](OC(C)=O)[C@]4(CC)C=CCN5CC[C@]31[C@@H]54)C2` [Vinorelbine] (10 nM): the normalised response in [1] was determined as 105%; in assay [2] it was 109%; in assay [4], 99%; in assay [5], 56.6%; in [6] it was 99.6%; in [7] it was 109%. Further, the normalised response in assay [8] is 101%; in [9] it was 72.6%; in [10], 104%; in [11] it was 93%; in assay [12], 95.3%; in assay [13] it was 123%. Besides, the normalised response in assay [14] is 104%; in assay [15], 79.3%; in assay [16] it was 94.4%; in [17] it was 95.8%; in assay [18] it was 90.6%.
